These are yes or no findings as the source states them, for the method shown. Some binding calls cover weakened binding; strength is not graded here. No end group written: not given here. *: point of attachment. 125I = [125I]*

Protein sequences, listed by entry. Tags and fused reporters are not part of them. Residues count along the entry.
UniProt P05305, residues 53-73: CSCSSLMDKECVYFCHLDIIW

The target of assay [1] is T1, Dahl R Dear S44P/M74T variant (rat Dual Endothelin-1/Angiotensin II Receptor) (rat (Dahl R/JRHsd)) (UniProt D3ZGZ6).
T1 sequence: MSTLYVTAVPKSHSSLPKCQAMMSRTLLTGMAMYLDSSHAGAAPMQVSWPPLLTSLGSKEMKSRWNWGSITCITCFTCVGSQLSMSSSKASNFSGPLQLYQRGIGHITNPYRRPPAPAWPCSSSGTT
Put plainly: direct radioligand binding and west-western blot. Background: A western blot detects proteins with antibodies after separation by electrophoresis.

Assay [2] has as its target T1, Dahl R Dear S44P/M74T variant (rat Dual Endothelin-1/Angiotensin II Receptor) (rat (Dahl R/JRHsd)). Put plainly: west-western blot of kidney and Cos1 transfectant membranes.

B1: [125I]Tyr13-endothelin-1 (peptide, UniProt P05305 53-73, looked up)
peptide: CSCSSLMDKECVY(125I)FCHLDIIW
modifications: ends and bridges not checked
notes: mature; Radiolabelled ligand; also called ET-1
For the molecule B1, the binding entry in assay [1] and in assay [2] was “binds” each time.

The record behind these values is patent US20140186344A1 (TRUSTEES OF BOSTON UNIVERSITY, published 2014).
